Our source for the recovery values is publication PMC11965454, “Simultaneous determination of lesinurad and co-administered drugs used in management of gout comorbidities to uncover potential pharmacokinetic interaction in rat plasma” (Scientific Reports, 2025).

A short description of data set [1]: Stock solution stability (methanol), HPLC-DAD. It is filed as physicochemical. To be noted: stock solution in methanol, n = 3.
Data set [2] is described as follows: Stability of the studied drugs in rat plasma (freeze-thaw, bench-top, long-term), HPLC-DAD. The data set is classed as in vitro ADME. To be noted: n = 3. As for the experimental part:
Stability studies were conducted by preparing low, medium and high plasma QC samples in triplicates under different conditions and comparing them with freshly prepared quality control samples. Namely, three freeze-thaw cycles (freeze at -20 °C then thaw at room temperature for three cycles), bench-top stability testing for 6 h at room temperature and long-term stability testing for 35 days at -20 °C. Moreover, investigation of the stability of LES, ETC, EPL, AMD and DIC stock solutions was performed by keeping the stock solutions for 30 days at 4 °C or for 6 h at room temperature.

With `CCCCc1oc2ccccc2c1C(=O)c1cc(I)c(OCCN(CC)CC)c(I)c1` [AMD, amiodarone], the recovery at 6 h, 1000 ng/ml in data set [1] (1000 ng/ml, 6 h at room temperature, read-out: Stock solution stability (room temp.) Recovery%) was found to be 100%; in data set [2] (rat plasma, 1000 ng/ml, 6 h at room temperature), 93.7%. For the same compound, the recovery at 30 days, 1000 ng/ml in data set [1] (1000 ng/ml, 30 days at 4 °C) was determined as 102%. Also, the recovery at 6 h, 10000 ng/ml in data set [1] (10,000 ng/ml, 6 h at room temperature, read-out: Stock solution stability (room temp.) Recovery%) was 101%; in data set [2] (rat plasma, 10,000 ng/ml, 6 h at room temperature) it was 96.3%. This compound also displayed a recovery at 30 days, 10000 ng/ml in data set [1] (10,000 ng/ml, 30 days at 4 °C) of 99.6%. Also, the recovery at 6 h, 25000 ng/ml came out at 102% in data set [1] (25,000 ng/ml, 6 h at room temperature, read-out: Stock solution stability (room temp.) Recovery%) and 94.8% in data set [2] (rat plasma, 25,000 ng/ml, 6 h at room temperature). In data set [1] (25,000 ng/ml, 30 days at 4 °C), this compound had a recovery at 30 days, 25000 ng/ml of 102%. Moreover, in data set [2] (rat plasma, 1000 ng/ml, 35 days at -20 °C), the recovery at 35 days, 1000 ng/ml worked out at 91.3%. The compound further displayed a recovery at 1000 ng/ml in data set [2] (rat plasma, 1000 ng/ml, three cycles -20 °C / room temperature) of 91.3%. This compound had a recovery at 35 days, 10000 ng/ml in data set [2] (rat plasma, 10,000 ng/ml, 35 days at -20 °C) of 95.7%. The recovery at 10000 ng/ml in data set [2] (rat plasma, 10,000 ng/ml, three cycles -20 °C / room temperature) is 92.4%. The recovery at 35 days, 25000 ng/ml in data set [2] (rat plasma, 25,000 ng/ml, 35 days at -20 °C) worked out at 92.5%. The same compound came in with a recovery at 25000 ng/ml in data set [2] (rat plasma, 25,000 ng/ml, three cycles -20 °C / room temperature) of 95.2%.
